Source: PubChem BioAssay AID1508597 (Cure First, 2020)

- Assay: 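Genes whose silencing sensitises or protects ovarian cancer cells against rucaparib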 (primary screen)
- System: human ovarian carcinoma lines grown from tumours: OCI-P5x (papillary serous) and OCI-C5x (clear cell)
- Reagents: siRNA pool against human genes, 1.25 pmol siRNA per well
- Duration: 72 h or 96 h, depending on the cell culture
- Challenge: rucaparib 20 µM (about IC30) or vehicle, present until read-out
- Rucaparib or vehicle: Rucaparib
- Cell line: OCI-P5x (serous)
- Measurement: 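Luminescent ATP-based viability assay read 72 or 96 h after transfection, depending on culture, given as normalised percent viability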
- Reading the numbers: viability, normalised: higher = more viable cells remaining
- Active means: 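Active when normalised viability falls below 80 percent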
- Meaning of the calls: active = viability under 80%; inactive = viability 80% or more
This is an unselected part of the about 2,100 reagents, in one setting of the screen. 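Calls flag viability under 80% in either arm, not effects specific to rucaparib; the reference for percent is not stated.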 Unmarked entries are inactive. The numbers tell different reagents against one gene apart. The record does not give: the 100% reference.

RBM14, technical replicate 1: viability, normalised (%) = 89.9
RBM14, technical replicate 2: viability, normalised (%) = 76.7 (active)
RBM14, technical replicate 3: viability, normalised (%) = 75.4 (active)
MED1, technical replicate 1: viability, normalised (%) = 54.1 (active)
MED1, technical replicate 2: viability, normalised (%) = 64 (active)
MED1, technical replicate 3: viability, normalised (%) = 55.8 (active)
H1-4, technical replicate 1: viability, normalised (%) = 71.1 (active)
H1-4, technical replicate 2: viability, normalised (%) = 66.7 (active)
H1-4, technical replicate 3: viability, normalised (%) = 64.8 (active)
RAD51AP1, technical replicate 1: viability, normalised (%) = 68.8 (active)
RAD51AP1, technical replicate 2: viability, normalised (%) = 68.8 (active)
RAD51AP1, technical replicate 3: viability, normalised (%) = 80.1
MAP4K1, technical replicate 1: viability, normalised (%) = 83.4
MAP4K1, technical replicate 2: viability, normalised (%) = 90.2
MAP4K1, technical replicate 3: viability, normalised (%) = 91.2
PES1, technical replicate 1: viability, normalised (%) = 63.2 (active)
PES1, technical replicate 2: viability, normalised (%) = 59.9 (active)
PES1, technical replicate 3: viability, normalised (%) = 85.6
MAD1L1, technical replicate 1: viability, normalised (%) = 70.2 (active)
MAD1L1, technical replicate 2: viability, normalised (%) = 87.6
MAD1L1, technical replicate 3: viability, normalised (%) = 74.6 (active)
PI4KB #1, technical replicate 1: viability, normalised (%) = 67.4 (active)
PI4KB #1, technical replicate 2: viability, normalised (%) = 83.5
PI4KB #1, technical replicate 3: viability, normalised (%) = 71.1 (active)
PI4KB #2, technical replicate 1: viability, normalised (%) = 104
PI4KB #2, technical replicate 2: viability, normalised (%) = 77.5 (active)
PI4KB #2, technical replicate 3: viability, normalised (%) = 74.5 (active)
TEK, technical replicate 1: viability, normalised (%) = 103
TEK, technical replicate 2: viability, normalised (%) = 115
TEK, technical replicate 3: viability, normalised (%) = 91.4
ZDHHC1, technical replicate 1: viability, normalised (%) = 61 (active)
ZDHHC1, technical replicate 2: viability, normalised (%) = 73.2 (active)
ZDHHC1, technical replicate 3: viability, normalised (%) = 57.2 (active)

Copied from the list.
For “viability, normalised (%)”, TEK, technical replicate 1 reads 103
Value for MAP4K1, technical replicate 1 under “viability, normalised (%)”: 83.4
Entry for ZDHHC1, technical replicate 3 under “viability, normalised (%)”: 57.2 (active)
For “viability, normalised (%)”, PES1, technical replicate 2 shows 59.9 (active)
